In PubChem BioAssay AID540276 (National Center for Advancing Translational Sciences (NCATS), 2011):
Hit rate of the full screen: of about 300,000 compounds, about 5,400 (1.8%) were called active. Inconclusive results, whose numbers are uncertain, are shown with a selection of clear calls. Calls come from the whole dose curve; tested in HEK293 cells. Potencies of inconclusive entries are doubtful fits and often do not repeat.
Potency is the fitted concentration of half-maximal effect.

Experiment: qHTS for inhibitors of binding or entry into cells for Marburg Virus
Settings: Marburg virus pseudotyped entry inhibition, cell reporter; series mostly up to 37.8 µM
In the case of `CC1=C(C(=O)Nc2ccccn2)C(c2ccc(N(C)C)cc2)n2ncnc2N1` (stereo not drawn), the Potency is reported as “inactive”.
For `COc1ccc(C2C3=C(Nc4ncnn42)c2ccccc2CCC3)cc1` (stereo not drawn), the Potency was “inactive”.
With `COc1ccc(-c2nc3c4c(ncn3n2)-c2ccccc2CC42CCCC2)cc1` the Potency was “inactive”.
In the case of `CC(=O)/C(N=Nc1cc2c(c([N+](=O)[O-])c1C)C(C)(C)CC2(C)C)=C(\C)O`, the Potency is reported as “inactive”.
In the case of `CCOC(=O)c1cccc(NC(=O)COC)c1`, the Potency is reported as inconclusive: 7.08 µM [activator, full curve, poor fit].
In the case of `COc1cccc2cc(C(C)N(CCCN3CCOCC3)C(=S)Nc3ccccc3C)oc12` (stereo not drawn), the Potency is reported as inconclusive: 25.1 µM [inhibitor, single point].
With `CC(C)CNc1nc(Oc2ccc(=O)[nH]n2)nc(N2CCOCC2)n1` the Potency was inconclusive: 6.31 µM [inhibitor, single point].
In the case of `CC1CCCCN1C(=O)CSc1nnc2ccccn12` (stereo not drawn), the Potency is reported as inconclusive: 31.6 µM [activator, single point].
With `CCOc1ccc(NC(=O)CN2CCN(CC(=O)Nc3ccc(Cl)c(C(F)(F)F)c3)CC2)cc1` the Potency was inconclusive: 20.6 µM [inhibitor, single point].
For `COc1ccc(OCCC(=O)NCCN2CCOCC2)cc1`, the Potency was inconclusive: 35.5 µM [activator, single point].
With `CCOC(=O)C(C(=O)NCc1ccc(F)cc1)c1ncc(C(F)(F)F)cc1Cl` (stereo not drawn) the Potency was inconclusive: 35.5 µM [activator, single point].
For `CCOC(=O)C1CCCN(C(=O)c2ccc3c(=O)n(CCOC)c(=S)[nH]c3c2)C1` (stereo not drawn), the Potency was inconclusive: 9.2 µM [inhibitor, partial curve, poor fit].
In the case of `Cc1cc(OCC(=O)NCC2(N3CCN(C)CC3)CCCCC2)cc(C)c1Cl`, the Potency is reported as inconclusive: 35.5 µM [inhibitor, single point].
With `O=C(NCCCN1CCCCC1)c1ccc(CS(=O)c2ccc(Cl)cc2)o1` (stereo not drawn) the Potency was inconclusive: 7.94 µM [inhibitor, partial curve, poor fit].
For `Cc1ccc(NC(=S)N2CCCCCC2)c(C)c1`, the Potency was inconclusive: 2.82 µM [activator, single point].
For `CC(=O)Nc1cccc(Nc2nc(-c3ccccc3F)nc3ccccc23)c1`, the Potency was inconclusive: 10 µM [inhibitor, partial curve, poor fit].
In the case of `CCCCCCCOc1ccc(C(=O)Nc2cccnc2)cc1`, the Potency is reported as inconclusive: 12.6 µM [inhibitor, single point].
With `CCc1ccc(-c2ccc(C(=O)C(F)(F)F)[nH]2)cc1` the Potency was inconclusive: 29.1 µM [inhibitor, single point].
With `C=CCN1N=C(/C=C/c2ccc(OC)cc2)CCC1=O` the Potency was inconclusive: 10 µM [activator, partial curve, poor fit].
With `O=C(OCn1nnc2ccccc2c1=O)c1ccc(N2CCOCC2)c([N+](=O)[O-])c1` the Potency was inconclusive: 3.16 µM [activator, full curve, poor fit].
With `CC1CC(C)(C)CC2(C1)NC(=O)N(CC(=O)Nc1ccc(N3CCCCC3)cc1)C2=O` (stereo not drawn) the Potency was “inactive”.
With `CCOC(=O)c1ccc(NC(=O)CN(c2ccc(C)cc2)S(=O)(=O)c2c(C)noc2C)cc1` the Potency was active: 11.2 µM.
For `Cc1[nH]n(-c2ccccc2)c(=O)c1/C=C1\C=NN=C1c1ccccc1`, the Potency was “inactive”.
With `C[C@@H]1C(=O)N(C)C(=O)c2nc[nH]c21` the Potency was “inactive”.
With `Cc1cc(C(=O)Nc2cccc3ccccc23)c(C)o1` the Potency was “inactive”.
In the case of `CCOc1ccc2c(c1)ncn2Cc1ccccc1`, the Potency is reported as “inactive”.
In the case of `C=CCNC(=S)NNc1nc(Nc2ccccc2)nc(N2CCCCC2)n1`, the Potency is reported as “inactive”.
In the case of `S=C(NCCN1CCCCC1)Nc1ccc(Br)cc1`, the Potency is reported as inconclusive: 35.5 µM [inhibitor, single point].
For `COc1ccc(S(=O)(=O)N(C)CC(=O)N2CCN(c3ccccc3)CC2)cc1`, the Potency was inconclusive: 35.5 µM [inhibitor, single point].
For `CCN(CC)S(=O)(=O)c1ccc(NC(=S)NC(=O)C2CCC2)cc1`, the Potency was inconclusive: 6.31 µM [activator, single point].
For `O=[N+]([O-])c1cccc(/C=N\N=C2c3ccccc3-c3ccccc32)c1O`, the Potency was “inactive”.
With `COC(=O)c1ccccc1Sc1ncnc2onc(C)c12` the Potency was inconclusive: 5.62 µM [inhibitor, partial curve].
For `COC(=O)c1ccc(NC(=O)c2ccc(NS(=O)(=O)c3cccc4cccnc34)cc2)cc1`, the Potency was inconclusive: 35.5 µM [inhibitor, single point].
For `C=CCNC(=O)c1ccc(-c2cccc([N+](=O)[O-])c2)o1`, the Potency was inconclusive: 3.98 µM [activator, partial curve].
In the case of `CC1CCN(c2ccc(/C=N/n3nnnc3N)cc2[N+](=O)[O-])CC1`, the Potency is reported as “inactive”.
For `COc1ccc2oc(=O)cc(CN3CCN(c4ccc(F)cc4)CC3)c2c1`, the Potency was inconclusive: 35.5 µM [inhibitor, single point].
For `OCC1(Cc2ccc(Cl)cc2)CCN(Cc2ccc(Oc3ncccn3)cc2)CC1`, the Potency was inconclusive: 10 µM [inhibitor, partial curve, poor fit].
With `CC(c1ccco1)N(C(=O)c1cc(Cl)cc(Cl)c1)c1ccccn1` (stereo not drawn) the Potency was inconclusive: 11.2 µM [inhibitor, partial curve, poor fit].
With `Cc1cccc(C(=O)N2CCN=C2SCc2ccc([N+](=O)[O-])cc2)c1` the Potency was inconclusive: 35.5 µM [inhibitor, single point].
In the case of `CCc1nnc2n1N=C(c1ccc(-c3cc(Cl)ccc3Cl)o1)CS2`, the Potency is reported as inconclusive: 10.3 µM [inhibitor, partial curve, poor fit].
In the case of `CCOc1ccc(C(=O)NCC(C)C)cc1`, the Potency is reported as inconclusive: 7.08 µM [activator, partial curve, poor fit].
For `CCN(CC)S(=O)(=O)c1ccc(OC)c(NC(=O)C(C)Oc2ccc3c(C)cc(=O)oc3c2)c1` (stereo not drawn), the Potency was inconclusive: 35.5 µM [inhibitor, single point].
For `COc1cccc(NC(=O)C2CCN(S(=O)(=O)c3ccc4c(c3)NC(=O)C(C)S4)CC2)c1` (stereo not drawn), the Potency was inconclusive: 35.5 µM [inhibitor, partial curve, poor fit].
For `Cc1ccc(-n2c(=O)c3c(c4cc(C)ccc4n3C)n(CC(=O)NCc3ccccc3Cl)c2=O)cc1`, the Potency was “inactive”.
For `O=C(C1CCN(Cc2cn[nH]c2-c2ccc(F)cc2F)CC1)N1CCOCC1`, the Potency was “inactive”.
For `CC1(C)OC2OC(C(=O)N/N=C/c3cc(Br)ccc3O)C3OC(C)(C)OC3C2O1` (stereo not drawn), the Potency was inconclusive: 0.501 µM [inhibitor, full curve, poor fit].
With `Cc1ccc(S(=O)(=O)CNC(=S)c2cccc(C)c2)cc1` the Potency was “inactive”.
In the case of `Cc1ccc(NC(=O)/C=C/c2ccc([N+](=O)[O-])s2)cc1`, the Potency is reported as active: 14.1 µM.
With `COc1cccc(NC(=S)N(CCCN2CCC(C)CC2)Cc2cccs2)c1` the Potency was inconclusive: 12.6 µM [inhibitor, partial curve, poor fit].
For `COc1ccc(S(=O)(=O)NC(C)C(=O)N2CCCCCC2)cc1` (stereo not drawn), the Potency was inconclusive: 1.26 µM [activator, single point].
With `Cc1sc2c(c1C)c(=O)n(CCc1ccccc1)c(=O)n2Cc1cccc(F)c1` the Potency was “inactive”.
For `O=C(C1CCC1)N1CCc2cc(S(=O)(=O)NCCN3CCN(c4ccccc4F)CC3)ccc21`, the Potency was active: 12.6 µM.
With `Fc1ccc(-c2nnc(CSc3nnc4ccccn34)o2)cc1` the Potency was inconclusive: 3.98 µM [activator, full curve].
In the case of `CC(=O)N(NC(N)=O)C(C)CC(=O)C1C(C)C=CCC1(C)C` (stereo not drawn), the Potency is reported as “inactive”.
For `O=C(Nc1ccccc1)Nc1ncc([N+](=O)[O-])s1`, the Potency was inconclusive: 5.62 µM [inhibitor, partial curve, poor fit].
For `Nc1nc(-c2ccc3c(c2)CCC(=O)N3)cs1`, the Potency was inconclusive: 6.31 µM [activator, full curve, poor fit].
For `COc1ccc(C2c3cc(OC)c(OC)cc3CC3C(=O)OCC32)cc1OC` (stereo not drawn), the Potency was inconclusive: 6.31 µM [inhibitor, single point].
In the case of `CN1CCN(C(=O)CCN2C(=O)/C(=C/c3ccc(F)cc3)SC2=S)CC1`, the Potency is reported as inconclusive: 1.78 µM [inhibitor, full curve, poor fit].
For `COc1ccc(CNC(=O)c2cc3cc(C)ccc3n2C)cc1`, the Potency was inconclusive: 0.891 µM [inhibitor, full curve, poor fit].
For `NC1C2CN(c3nc4c(cc3F)c(=O)c(C(=O)O)cn4-c3ccc(F)cc3F)CC12` (stereo not drawn), the Potency was “inactive”.
In the case of `CCOCCn1ccc2c(OCC(=O)Nc3ccccc3OC)cccc2c1=O`, the Potency is reported as “inactive”.
In the case of `CN(C(=O)c1cc(-c2ccccc2)on1)C1CCCCC1`, the Potency is reported as inconclusive: 31.6 µM [inhibitor, single point].
For `c1ccc(-c2c[n+]3c(n2-c2ccccc2)SCC3)cc1`, the Potency was inconclusive: 5.62 µM [activator, single point].
For `CC(C)CCC1(CCNC(C)c2cccs2)CCOC(C)(C)C1` (stereo not drawn), the Potency was inconclusive: 10 µM [inhibitor, partial curve, poor fit].
With `O=C(Nc1ccncc1)c1ccc2c(c1)C(=O)N(C1CCCCC1)C2=O` the Potency was inconclusive: 20 µM [inhibitor, single point].
For `CC(=O)Nc1ccc(S(=O)(=O)NCCOc2ccc(Cl)cc2C)cc1`, the Potency was inconclusive: 22.4 µM [inhibitor, partial curve, poor fit].
In the case of `Cc1cc(N2C(=O)C3C4C=CC(C4)C3C2=O)ccc1NC(=O)c1cccs1` (stereo not drawn), the Potency is reported as inconclusive: 10 µM [activator, partial curve, poor fit].
